The chains behind the UniProt entries cited, without tags or fusion partners. Where a name states a change or a piece, a line headed by the entry shows the natural chain unless it says otherwise.
UniProt O95466, whole entry: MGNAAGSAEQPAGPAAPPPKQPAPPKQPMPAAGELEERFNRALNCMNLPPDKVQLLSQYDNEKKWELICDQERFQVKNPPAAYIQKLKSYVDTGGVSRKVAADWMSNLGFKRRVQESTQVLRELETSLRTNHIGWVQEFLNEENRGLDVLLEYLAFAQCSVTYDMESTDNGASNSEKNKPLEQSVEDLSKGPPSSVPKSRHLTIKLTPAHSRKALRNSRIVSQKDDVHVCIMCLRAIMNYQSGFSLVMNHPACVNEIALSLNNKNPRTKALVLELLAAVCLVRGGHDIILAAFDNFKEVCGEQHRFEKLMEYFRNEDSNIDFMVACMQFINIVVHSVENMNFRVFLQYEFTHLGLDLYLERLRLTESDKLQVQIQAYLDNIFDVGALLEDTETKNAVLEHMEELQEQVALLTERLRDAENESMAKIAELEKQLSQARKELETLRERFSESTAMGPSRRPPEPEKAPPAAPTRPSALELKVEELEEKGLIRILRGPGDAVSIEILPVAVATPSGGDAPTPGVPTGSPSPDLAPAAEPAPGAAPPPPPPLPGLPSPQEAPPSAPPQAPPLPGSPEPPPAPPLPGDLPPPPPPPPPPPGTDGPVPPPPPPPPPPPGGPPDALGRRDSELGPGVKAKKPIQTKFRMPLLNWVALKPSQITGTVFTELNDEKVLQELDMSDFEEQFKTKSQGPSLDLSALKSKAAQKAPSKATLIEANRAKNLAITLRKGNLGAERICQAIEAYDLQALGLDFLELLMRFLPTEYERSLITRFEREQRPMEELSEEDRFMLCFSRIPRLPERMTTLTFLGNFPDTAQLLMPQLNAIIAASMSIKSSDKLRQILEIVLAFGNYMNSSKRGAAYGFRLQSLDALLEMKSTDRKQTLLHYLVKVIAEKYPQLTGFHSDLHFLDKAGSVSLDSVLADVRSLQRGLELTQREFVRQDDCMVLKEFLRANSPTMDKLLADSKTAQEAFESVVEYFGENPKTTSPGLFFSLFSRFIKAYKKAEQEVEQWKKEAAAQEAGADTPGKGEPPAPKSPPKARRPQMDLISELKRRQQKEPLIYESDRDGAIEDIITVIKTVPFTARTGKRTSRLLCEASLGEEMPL
UniProt O96028: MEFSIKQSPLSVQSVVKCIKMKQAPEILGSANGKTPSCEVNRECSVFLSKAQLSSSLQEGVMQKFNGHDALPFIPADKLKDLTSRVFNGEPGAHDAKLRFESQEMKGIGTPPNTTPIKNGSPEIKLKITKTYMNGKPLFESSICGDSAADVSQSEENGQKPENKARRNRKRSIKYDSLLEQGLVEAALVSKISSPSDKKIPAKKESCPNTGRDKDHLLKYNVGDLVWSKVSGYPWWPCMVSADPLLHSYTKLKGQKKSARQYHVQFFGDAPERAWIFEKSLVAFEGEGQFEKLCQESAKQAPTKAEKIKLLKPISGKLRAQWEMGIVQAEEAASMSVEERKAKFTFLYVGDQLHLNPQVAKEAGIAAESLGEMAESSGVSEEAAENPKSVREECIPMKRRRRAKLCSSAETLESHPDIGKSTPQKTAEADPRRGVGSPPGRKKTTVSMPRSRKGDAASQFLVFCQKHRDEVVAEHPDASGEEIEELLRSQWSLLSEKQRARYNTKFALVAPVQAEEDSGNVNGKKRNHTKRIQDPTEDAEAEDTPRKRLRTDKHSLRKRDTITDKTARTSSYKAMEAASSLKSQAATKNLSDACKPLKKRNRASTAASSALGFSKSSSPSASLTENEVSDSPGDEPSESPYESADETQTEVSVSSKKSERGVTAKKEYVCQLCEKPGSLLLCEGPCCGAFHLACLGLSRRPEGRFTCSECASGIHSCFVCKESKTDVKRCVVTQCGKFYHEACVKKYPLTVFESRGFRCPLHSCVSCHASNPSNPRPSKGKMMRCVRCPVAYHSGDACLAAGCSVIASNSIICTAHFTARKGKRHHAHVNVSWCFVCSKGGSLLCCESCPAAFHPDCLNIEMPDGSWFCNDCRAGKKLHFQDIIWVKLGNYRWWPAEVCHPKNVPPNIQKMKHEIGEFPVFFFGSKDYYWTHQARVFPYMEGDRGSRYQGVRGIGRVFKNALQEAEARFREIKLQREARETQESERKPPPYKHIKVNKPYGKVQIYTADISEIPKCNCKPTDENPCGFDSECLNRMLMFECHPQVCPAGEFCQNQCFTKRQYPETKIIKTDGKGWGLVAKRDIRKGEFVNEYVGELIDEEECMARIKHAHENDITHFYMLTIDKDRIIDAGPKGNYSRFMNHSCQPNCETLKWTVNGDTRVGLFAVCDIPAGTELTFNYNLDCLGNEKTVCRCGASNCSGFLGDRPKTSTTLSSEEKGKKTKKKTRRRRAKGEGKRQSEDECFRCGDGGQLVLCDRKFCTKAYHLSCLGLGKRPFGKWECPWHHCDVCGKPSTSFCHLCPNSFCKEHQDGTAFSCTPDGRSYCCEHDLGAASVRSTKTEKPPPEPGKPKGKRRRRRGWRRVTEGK
UniProt Q99598: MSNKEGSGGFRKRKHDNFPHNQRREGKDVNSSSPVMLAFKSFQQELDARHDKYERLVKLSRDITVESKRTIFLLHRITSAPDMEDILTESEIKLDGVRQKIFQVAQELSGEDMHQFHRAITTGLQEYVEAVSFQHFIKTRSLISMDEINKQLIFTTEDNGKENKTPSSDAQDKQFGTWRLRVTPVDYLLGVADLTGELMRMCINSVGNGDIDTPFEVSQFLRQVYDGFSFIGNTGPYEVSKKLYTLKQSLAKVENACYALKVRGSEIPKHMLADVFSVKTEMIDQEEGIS
UniProt P24844: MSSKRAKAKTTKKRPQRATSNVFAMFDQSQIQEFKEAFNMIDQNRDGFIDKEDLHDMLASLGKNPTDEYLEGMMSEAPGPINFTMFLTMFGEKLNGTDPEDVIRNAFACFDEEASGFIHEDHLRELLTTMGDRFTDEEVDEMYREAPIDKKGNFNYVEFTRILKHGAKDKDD
UniProt Q9Y5Q8: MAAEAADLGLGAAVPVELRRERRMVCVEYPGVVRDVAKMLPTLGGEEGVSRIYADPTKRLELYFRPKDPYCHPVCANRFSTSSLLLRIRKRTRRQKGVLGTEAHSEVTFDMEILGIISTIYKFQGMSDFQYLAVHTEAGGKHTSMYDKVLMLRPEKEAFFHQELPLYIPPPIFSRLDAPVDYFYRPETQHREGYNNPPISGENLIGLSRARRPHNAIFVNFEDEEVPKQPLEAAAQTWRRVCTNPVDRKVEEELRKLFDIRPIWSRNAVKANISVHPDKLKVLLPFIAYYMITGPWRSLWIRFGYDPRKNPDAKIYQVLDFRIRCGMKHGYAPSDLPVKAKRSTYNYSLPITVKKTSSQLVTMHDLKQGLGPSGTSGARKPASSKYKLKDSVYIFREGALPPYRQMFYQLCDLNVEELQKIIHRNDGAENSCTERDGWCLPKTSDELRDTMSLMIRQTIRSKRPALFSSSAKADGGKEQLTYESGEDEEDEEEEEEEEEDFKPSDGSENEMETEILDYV
UniProt Q9NVN3: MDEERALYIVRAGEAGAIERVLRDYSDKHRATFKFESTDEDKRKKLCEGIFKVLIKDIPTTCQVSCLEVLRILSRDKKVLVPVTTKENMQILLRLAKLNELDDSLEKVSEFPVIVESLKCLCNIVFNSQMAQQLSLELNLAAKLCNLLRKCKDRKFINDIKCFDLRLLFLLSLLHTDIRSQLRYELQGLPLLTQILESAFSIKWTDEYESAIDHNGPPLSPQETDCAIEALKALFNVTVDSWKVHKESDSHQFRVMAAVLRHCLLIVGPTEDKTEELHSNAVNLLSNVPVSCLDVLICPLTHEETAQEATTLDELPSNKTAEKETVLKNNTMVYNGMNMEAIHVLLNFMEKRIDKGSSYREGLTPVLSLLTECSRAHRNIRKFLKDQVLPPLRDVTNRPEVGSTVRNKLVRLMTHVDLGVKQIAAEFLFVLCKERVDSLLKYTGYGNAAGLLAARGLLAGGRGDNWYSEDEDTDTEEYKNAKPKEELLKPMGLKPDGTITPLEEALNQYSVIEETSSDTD
UniProt Q7Z3E2: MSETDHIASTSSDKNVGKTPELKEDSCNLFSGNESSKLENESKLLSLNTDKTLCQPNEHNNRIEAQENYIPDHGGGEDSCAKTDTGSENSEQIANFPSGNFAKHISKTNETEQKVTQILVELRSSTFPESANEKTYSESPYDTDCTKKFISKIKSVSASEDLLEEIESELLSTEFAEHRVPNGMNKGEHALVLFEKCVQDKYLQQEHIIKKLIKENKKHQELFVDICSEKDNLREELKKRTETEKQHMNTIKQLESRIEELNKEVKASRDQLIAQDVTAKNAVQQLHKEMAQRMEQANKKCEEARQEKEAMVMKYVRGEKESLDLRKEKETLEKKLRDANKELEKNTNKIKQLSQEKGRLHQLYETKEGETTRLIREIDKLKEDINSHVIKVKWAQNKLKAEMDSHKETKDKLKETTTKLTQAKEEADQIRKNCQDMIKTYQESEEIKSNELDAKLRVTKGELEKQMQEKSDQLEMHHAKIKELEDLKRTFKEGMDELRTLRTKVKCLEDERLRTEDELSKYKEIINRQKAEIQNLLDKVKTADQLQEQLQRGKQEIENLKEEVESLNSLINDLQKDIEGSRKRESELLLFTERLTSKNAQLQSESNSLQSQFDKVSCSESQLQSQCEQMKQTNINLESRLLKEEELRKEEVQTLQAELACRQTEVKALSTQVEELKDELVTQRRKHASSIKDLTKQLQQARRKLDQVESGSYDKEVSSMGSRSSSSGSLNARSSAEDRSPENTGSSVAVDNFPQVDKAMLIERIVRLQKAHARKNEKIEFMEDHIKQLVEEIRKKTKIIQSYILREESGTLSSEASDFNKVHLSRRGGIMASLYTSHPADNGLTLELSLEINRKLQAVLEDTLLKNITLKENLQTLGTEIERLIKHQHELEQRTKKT
UniProt O15305: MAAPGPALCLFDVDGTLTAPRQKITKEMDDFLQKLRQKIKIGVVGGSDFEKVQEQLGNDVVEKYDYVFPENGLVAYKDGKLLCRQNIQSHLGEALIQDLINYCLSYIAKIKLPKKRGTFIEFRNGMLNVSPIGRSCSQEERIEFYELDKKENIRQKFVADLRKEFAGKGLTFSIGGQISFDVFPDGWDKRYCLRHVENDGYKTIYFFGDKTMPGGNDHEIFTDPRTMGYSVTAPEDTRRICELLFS
UniProt Q9NUY8: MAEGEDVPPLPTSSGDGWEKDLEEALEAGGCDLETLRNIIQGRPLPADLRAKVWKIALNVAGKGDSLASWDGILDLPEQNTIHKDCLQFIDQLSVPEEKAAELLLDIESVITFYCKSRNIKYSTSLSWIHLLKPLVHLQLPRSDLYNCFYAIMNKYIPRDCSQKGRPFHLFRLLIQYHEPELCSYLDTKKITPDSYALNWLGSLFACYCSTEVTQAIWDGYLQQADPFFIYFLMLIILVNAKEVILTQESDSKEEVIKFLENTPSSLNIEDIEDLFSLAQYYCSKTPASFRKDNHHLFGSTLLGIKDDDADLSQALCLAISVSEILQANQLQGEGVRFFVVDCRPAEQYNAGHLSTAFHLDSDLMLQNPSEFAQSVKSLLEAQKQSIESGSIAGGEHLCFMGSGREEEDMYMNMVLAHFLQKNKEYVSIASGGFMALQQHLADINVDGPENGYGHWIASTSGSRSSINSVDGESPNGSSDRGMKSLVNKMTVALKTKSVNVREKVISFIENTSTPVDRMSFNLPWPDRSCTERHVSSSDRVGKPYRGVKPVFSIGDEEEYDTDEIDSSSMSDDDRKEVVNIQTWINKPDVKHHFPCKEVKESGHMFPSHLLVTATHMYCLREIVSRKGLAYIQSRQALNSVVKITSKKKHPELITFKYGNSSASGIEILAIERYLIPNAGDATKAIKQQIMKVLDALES
UniProt Q8WUN7: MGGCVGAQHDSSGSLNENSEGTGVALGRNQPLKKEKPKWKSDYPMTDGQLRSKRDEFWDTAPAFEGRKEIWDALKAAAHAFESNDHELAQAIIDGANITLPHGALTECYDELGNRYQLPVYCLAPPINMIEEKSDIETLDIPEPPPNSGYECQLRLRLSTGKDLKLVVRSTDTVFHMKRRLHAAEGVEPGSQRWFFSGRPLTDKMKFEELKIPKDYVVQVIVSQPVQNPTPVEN
UniProt Q9Y2Z4: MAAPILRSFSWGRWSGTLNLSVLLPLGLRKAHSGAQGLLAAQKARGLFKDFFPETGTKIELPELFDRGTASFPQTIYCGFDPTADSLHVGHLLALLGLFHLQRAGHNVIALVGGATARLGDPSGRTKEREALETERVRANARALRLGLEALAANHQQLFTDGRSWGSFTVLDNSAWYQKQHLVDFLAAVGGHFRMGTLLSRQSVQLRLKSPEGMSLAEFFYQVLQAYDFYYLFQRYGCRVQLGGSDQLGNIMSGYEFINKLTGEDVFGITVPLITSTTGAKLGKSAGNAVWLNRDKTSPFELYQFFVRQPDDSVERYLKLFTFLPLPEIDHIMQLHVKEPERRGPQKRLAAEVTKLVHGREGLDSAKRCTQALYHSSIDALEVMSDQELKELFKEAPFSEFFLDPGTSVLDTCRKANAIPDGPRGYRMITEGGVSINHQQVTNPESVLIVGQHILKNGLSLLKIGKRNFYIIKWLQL

According to the supplement of paper PMC10060354, “Discovery of a small molecule ligand of FRS2 that inhibits invasion and tumor growth” (Cellular Oncology, 2022):

Compound: [O-][N+](C(C1=C(C(O)=C2)NC(C(C=C3)=CC=C3Cl)C4C1C=CC4)=C2Cl)=O
Test: melting temperature shift (compound 7 minus DMSO); higher = compound stabilises the protein
Conditions: 10 µM
Experimental: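 Thermal proteome profiling (TMT mass spectrometry) in intact DAOY medulloblastoma cells or DAOY lysates treated with 10 µM compound 7 or DMSO, heated at 10 temperatures from 40.5 to 73.8 °C for 3 min. Melting curves were fitted with the Bioconductor TPP package, and the melting point difference between compound and vehicle is reported per protein (single curve per condition).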

[1] = system: DAOY cell lysate, treatment time: 20 min, 4 °C
[2] = system: intact DAOY cells, treatment time: 90 min, 37 °C

Target	melting temperature shift [1]	melting temperature shift [2]
IPO4 (UniProt Q8TEX9)	-0.658 °C	-0.163 °C
CAPN2 (UniProt P17655)	-0.203 °C	-0.218 °C
PPIL4 (UniProt Q8WUA2)	-0.357 °C	-0.274 °C
FMNL1 (UniProt O95466)	-0.769 °C	
UniProt O96028	2.15 °C	
SWAP70 (UniProt Q9UH65)	-0.55 °C	0.339 °C
RAB13 (UniProt P51153)	0.69 °C	-0.794 °C
SDAD1 (UniProt Q9NVU7)	0.351 °C	
ATP6V1B2 (UniProt P21281)	0.129 °C	0.462 °C
UniProt Q96JB3	1.04 °C	-4.07 °C
UniProt Q9BV36	0.549 °C	
RNH1 (UniProt P13489)	-0.23 °C	0.311 °C
SEC24A (UniProt O95486)	-0.467 °C	-0.127 °C
C19ORF53 (UniProt Q9UNZ5)	1.08 °C	-0.444 °C
CLP1 (UniProt Q92989)	1.61 °C	
UniProt Q9NQS7	0.795 °C	
NCOA5 (UniProt Q9HCD5)	0.964 °C	1.55 °C
PLXNA2 (UniProt O75051)	0.888 °C	
KDELC2 (UniProt Q7Z4H8)	0.232 °C	0.481 °C
TSNAX (UniProt Q99598)	-1.1 °C	1.52 °C
UniProt P24844	-0.122 °C	-0.474 °C
PPAN (UniProt Q9NQ55)	0.789 °C	
DDX23 (UniProt Q9BUQ8)	-0.0754 °C	0.949 °C
GTF3C5 (UniProt Q9Y5Q8)	0.743 °C	1.72 °C

Target	melting temperature shift [1]	melting temperature shift [2]
RIC8B (UniProt Q9NVN3)	-1.96 °C	-0.923 °C
RPL15 (UniProt P61313)	0.248 °C	-0.184 °C
FAM172A (UniProt Q8WUF8)	0.98 °C	0.0826 °C
SUPV3L1 (UniProt Q8IYB8)	-0.888 °C	-0.691 °C
CNNM3 (UniProt Q8NE01)		0.285 °C
NUDCD1 (UniProt Q96RS6)	-1 °C	0.173 °C
UniProt Q8TB92		-0.572 °C
PPFIBP1 (UniProt Q86W92)	-0.317 °C	0.891 °C
DNASE2 (UniProt O00115)	-4.03 °C	
MRPL41 (UniProt Q8IXM3)	-0.774 °C	-0.378 °C
BAIAP2 (UniProt Q9UQB8)	0.0987 °C	-0.538 °C
GCC2 (UniProt Q8IWJ2)	-0.314 °C	0.238 °C
CCDC186 (UniProt Q7Z3E2)	-1.25 °C	
UniProt O95319		-0.781 °C
PMM2 (UniProt O15305)	-0.409 °C	-0.782 °C
USP5 (UniProt P45974)	-0.351 °C	-0.263 °C
UniProt O00391		2.66 °C
TBC1D23 (UniProt Q9NUY8)	0.875 °C	-0.951 °C
PPWD1 (UniProt Q96BP3)	0.0244 °C	1.19 °C
POLR3A (UniProt O14802)	0.361 °C	-1.33 °C
UniProt Q8WUN7	-3.31 °C	
YARS2 (UniProt Q9Y2Z4)	-0.0681 °C	0.333 °C
UFC1 (UniProt Q9Y3C8)	0.364 °C	0.491 °C

Given field by field: part of the list above
DDX23 (UniProt Q9BUQ8)
  melting temperature shift [1]: -0.0754 °C
  melting temperature shift [2]: 0.949 °C
TBC1D23 (UniProt Q9NUY8)
  melting temperature shift [1]: 0.875 °C
  melting temperature shift [2]: -0.951 °C

Many values rest on one well or one pass, so single values are uncertain.
